The text below walks through data of PMC6765148.

Protein sequences, listed by entry. Tags and fused reporters are not part of them.
UniProt P51784: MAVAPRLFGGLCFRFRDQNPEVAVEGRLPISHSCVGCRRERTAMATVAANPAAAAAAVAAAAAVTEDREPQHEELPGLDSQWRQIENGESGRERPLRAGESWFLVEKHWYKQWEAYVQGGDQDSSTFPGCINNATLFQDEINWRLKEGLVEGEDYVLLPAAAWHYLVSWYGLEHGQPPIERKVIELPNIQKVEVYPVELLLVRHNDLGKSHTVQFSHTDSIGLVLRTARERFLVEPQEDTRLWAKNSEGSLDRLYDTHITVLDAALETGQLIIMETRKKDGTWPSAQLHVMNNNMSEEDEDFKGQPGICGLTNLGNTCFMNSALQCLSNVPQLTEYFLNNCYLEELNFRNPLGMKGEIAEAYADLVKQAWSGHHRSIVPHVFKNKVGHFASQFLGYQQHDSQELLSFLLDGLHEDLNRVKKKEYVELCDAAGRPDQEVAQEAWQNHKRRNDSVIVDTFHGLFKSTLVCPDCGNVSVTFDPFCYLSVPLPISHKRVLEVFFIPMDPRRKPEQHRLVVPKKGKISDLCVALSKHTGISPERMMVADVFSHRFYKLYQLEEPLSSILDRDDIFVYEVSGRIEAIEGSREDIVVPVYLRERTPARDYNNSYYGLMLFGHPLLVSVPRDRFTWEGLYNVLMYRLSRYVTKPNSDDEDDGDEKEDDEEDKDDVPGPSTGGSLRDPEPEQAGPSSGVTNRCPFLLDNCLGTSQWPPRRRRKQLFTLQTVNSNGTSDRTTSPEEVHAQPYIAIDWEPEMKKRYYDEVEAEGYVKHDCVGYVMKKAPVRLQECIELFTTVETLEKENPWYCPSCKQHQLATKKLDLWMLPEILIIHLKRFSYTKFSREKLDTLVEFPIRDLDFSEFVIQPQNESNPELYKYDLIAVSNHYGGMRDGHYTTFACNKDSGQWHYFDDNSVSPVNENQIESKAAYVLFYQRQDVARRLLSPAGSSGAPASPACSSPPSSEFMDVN
UniProt Q92769: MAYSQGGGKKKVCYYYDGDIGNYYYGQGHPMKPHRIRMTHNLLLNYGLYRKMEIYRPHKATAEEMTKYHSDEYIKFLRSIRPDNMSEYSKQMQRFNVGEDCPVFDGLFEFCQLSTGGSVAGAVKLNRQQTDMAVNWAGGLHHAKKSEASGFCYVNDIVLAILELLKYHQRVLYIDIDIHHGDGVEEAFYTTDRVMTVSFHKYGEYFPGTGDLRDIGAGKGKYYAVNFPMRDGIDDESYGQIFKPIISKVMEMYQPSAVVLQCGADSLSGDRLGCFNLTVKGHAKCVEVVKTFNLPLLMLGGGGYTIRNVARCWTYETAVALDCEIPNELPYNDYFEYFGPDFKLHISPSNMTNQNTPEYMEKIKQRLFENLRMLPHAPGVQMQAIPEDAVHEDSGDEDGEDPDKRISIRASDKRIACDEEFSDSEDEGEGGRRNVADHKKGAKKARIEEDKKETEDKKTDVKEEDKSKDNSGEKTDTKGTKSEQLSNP
UniProt Q09028: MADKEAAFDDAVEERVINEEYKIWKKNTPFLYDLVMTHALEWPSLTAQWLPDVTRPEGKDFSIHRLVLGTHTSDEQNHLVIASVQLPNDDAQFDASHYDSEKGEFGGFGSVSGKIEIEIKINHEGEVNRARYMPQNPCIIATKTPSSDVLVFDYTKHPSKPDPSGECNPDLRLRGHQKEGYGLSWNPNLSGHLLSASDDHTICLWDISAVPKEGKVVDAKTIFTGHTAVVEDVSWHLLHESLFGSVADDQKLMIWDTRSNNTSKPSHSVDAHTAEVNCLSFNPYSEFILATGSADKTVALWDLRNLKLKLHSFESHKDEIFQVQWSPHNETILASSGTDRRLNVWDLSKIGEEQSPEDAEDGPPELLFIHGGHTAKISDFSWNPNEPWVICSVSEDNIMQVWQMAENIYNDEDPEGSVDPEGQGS

In the test the target is FLAG-USP11 (UniProt P51784). Briefly: affinity purification with mass spectrometry; extracts of HEK293T stably expressing FLAG-USP11 (150 mM NaCl, 0.3% NP-40, 1 mM DTT, 5 mM EDTA, 50 mM Tris-HCl pH 7.4) on anti-FLAG M2 resin, washed with PBS plus 0.3% NP-40, eluted with FLAG peptide, gel bands analysed by LC-MS/MS.

These are yes or no findings as the source states them, for the method shown. In cells and extracts the contact can be indirect. Here binding means that the protein was enriched with, or labelled near, the bait; the list need not be complete.

“HDAC2 (endogenous, HEK293T) (from UniProt Q92769 1-488) (enzyme)”: the binding result is reported as “binds”.

As for “RbAp48 (endogenous, HEK293T) (from UniProt Q09028 1-425)”, the binding entry is listed as “binds”.
